# Data as given in the supplement of paper PMC10849652.
# Sequences of proteins named here, by UniProt entry; tags and fusion partners are left off. A change or cut given only in a name is not applied to a line headed by its entry.
# UniProt Q14974, whole entry, looked up: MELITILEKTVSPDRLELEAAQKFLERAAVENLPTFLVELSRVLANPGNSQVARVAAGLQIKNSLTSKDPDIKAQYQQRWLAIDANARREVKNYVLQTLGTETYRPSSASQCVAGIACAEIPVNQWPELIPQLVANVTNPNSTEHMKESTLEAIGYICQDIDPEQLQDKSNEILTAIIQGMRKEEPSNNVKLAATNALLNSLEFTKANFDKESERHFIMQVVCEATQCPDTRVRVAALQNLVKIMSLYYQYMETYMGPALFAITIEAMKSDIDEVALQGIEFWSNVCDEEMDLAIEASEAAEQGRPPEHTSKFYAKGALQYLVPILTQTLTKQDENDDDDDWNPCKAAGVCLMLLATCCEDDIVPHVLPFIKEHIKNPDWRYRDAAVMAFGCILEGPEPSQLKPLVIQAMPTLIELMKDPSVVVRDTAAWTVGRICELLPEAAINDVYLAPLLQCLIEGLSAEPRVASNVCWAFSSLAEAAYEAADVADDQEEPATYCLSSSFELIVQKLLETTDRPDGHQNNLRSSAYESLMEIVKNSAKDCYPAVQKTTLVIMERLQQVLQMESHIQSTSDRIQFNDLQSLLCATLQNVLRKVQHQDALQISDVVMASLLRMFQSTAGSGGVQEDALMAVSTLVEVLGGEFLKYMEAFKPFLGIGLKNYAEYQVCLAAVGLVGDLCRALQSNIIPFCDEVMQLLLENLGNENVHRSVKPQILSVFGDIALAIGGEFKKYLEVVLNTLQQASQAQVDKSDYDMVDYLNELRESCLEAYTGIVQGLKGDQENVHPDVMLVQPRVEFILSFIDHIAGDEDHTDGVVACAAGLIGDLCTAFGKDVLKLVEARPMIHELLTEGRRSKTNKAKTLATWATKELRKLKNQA
# UniProt P17275: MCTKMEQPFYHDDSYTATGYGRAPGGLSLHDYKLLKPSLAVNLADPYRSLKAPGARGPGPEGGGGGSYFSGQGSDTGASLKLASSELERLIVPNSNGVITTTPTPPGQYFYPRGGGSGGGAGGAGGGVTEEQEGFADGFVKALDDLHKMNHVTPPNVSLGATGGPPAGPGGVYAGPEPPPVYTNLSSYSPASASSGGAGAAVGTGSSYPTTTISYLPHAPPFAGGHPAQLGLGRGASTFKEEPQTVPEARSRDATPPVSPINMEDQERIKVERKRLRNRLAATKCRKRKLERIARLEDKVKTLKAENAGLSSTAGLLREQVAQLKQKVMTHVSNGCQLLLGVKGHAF
# UniProt O15554, whole entry, looked up: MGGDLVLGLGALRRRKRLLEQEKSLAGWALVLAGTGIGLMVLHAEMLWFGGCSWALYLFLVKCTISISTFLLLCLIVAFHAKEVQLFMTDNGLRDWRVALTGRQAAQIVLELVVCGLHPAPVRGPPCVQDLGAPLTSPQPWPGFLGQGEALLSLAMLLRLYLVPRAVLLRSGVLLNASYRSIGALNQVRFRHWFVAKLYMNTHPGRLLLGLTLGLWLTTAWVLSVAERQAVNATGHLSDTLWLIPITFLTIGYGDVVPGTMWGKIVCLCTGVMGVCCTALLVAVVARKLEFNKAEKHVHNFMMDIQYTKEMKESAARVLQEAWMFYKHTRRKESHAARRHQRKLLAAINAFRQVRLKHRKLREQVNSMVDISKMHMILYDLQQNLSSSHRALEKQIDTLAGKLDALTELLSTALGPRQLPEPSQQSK
# UniProt O94889: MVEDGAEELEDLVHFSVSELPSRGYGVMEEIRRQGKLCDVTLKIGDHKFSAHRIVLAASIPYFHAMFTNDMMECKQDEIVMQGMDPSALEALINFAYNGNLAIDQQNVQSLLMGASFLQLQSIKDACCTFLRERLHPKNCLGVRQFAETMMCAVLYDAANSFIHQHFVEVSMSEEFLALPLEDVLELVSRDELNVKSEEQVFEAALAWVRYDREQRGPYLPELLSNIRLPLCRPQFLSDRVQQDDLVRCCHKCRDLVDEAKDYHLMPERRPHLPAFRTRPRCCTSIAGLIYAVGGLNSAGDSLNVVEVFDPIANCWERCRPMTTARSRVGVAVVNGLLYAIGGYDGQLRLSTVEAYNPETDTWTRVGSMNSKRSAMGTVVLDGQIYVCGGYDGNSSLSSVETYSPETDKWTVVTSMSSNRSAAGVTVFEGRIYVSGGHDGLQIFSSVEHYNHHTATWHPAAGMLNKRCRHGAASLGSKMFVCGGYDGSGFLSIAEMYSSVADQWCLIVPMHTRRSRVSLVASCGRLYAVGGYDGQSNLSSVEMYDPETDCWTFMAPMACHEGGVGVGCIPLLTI
# UniProt P52294, whole entry, looked up: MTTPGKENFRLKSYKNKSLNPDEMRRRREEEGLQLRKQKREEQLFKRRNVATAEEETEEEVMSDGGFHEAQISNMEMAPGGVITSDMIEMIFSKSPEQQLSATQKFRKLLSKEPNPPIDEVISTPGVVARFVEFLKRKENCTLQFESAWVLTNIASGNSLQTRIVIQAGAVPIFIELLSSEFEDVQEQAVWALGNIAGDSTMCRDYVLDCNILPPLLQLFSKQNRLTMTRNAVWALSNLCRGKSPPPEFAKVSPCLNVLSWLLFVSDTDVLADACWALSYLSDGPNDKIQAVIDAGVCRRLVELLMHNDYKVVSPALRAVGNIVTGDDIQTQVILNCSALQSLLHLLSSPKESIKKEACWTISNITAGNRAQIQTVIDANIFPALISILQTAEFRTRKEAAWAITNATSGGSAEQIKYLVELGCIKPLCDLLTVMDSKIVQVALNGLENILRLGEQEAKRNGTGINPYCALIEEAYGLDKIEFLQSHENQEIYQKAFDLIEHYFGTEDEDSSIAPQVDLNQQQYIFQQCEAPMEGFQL
# UniProt Q9BVG8: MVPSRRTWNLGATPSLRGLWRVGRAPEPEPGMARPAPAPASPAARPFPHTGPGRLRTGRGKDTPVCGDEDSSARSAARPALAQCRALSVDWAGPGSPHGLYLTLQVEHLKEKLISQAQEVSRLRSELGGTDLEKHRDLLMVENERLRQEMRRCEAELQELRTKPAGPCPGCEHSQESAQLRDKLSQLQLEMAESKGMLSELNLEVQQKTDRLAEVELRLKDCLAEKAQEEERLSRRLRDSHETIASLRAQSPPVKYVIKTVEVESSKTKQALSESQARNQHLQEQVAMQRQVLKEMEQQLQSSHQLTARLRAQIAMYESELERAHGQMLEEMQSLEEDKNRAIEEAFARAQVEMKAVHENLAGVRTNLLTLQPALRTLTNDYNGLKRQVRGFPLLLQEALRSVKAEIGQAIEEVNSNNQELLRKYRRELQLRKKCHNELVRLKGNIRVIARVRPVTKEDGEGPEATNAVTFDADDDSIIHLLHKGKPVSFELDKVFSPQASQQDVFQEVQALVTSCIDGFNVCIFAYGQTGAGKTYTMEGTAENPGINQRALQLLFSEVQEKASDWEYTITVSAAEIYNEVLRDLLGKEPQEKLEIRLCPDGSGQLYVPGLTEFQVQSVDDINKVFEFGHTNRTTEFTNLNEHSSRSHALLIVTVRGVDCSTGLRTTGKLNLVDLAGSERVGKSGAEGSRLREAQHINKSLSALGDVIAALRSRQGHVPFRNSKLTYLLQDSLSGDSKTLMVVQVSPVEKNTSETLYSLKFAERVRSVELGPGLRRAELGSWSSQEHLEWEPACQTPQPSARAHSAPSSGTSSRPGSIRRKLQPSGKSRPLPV
# UniProt Q9NVX7: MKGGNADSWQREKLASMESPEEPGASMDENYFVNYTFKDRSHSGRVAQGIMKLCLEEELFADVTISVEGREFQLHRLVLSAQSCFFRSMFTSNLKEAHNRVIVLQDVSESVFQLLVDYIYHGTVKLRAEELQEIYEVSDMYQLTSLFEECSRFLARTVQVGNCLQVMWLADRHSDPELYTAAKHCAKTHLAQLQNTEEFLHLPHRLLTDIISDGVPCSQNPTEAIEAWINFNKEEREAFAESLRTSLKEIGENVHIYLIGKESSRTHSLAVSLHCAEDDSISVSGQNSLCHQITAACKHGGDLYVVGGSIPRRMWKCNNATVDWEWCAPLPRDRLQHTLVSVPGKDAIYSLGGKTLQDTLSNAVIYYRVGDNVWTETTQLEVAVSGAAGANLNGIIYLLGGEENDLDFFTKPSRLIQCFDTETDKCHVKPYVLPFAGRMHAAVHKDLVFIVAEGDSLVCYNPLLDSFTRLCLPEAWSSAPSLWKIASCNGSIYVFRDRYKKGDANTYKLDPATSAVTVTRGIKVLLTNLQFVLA
# UniProt Q8N6L1: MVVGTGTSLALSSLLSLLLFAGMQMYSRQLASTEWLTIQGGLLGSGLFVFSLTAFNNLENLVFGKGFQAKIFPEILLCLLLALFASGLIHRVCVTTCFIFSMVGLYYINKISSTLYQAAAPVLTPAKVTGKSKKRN
# UniProt O60333: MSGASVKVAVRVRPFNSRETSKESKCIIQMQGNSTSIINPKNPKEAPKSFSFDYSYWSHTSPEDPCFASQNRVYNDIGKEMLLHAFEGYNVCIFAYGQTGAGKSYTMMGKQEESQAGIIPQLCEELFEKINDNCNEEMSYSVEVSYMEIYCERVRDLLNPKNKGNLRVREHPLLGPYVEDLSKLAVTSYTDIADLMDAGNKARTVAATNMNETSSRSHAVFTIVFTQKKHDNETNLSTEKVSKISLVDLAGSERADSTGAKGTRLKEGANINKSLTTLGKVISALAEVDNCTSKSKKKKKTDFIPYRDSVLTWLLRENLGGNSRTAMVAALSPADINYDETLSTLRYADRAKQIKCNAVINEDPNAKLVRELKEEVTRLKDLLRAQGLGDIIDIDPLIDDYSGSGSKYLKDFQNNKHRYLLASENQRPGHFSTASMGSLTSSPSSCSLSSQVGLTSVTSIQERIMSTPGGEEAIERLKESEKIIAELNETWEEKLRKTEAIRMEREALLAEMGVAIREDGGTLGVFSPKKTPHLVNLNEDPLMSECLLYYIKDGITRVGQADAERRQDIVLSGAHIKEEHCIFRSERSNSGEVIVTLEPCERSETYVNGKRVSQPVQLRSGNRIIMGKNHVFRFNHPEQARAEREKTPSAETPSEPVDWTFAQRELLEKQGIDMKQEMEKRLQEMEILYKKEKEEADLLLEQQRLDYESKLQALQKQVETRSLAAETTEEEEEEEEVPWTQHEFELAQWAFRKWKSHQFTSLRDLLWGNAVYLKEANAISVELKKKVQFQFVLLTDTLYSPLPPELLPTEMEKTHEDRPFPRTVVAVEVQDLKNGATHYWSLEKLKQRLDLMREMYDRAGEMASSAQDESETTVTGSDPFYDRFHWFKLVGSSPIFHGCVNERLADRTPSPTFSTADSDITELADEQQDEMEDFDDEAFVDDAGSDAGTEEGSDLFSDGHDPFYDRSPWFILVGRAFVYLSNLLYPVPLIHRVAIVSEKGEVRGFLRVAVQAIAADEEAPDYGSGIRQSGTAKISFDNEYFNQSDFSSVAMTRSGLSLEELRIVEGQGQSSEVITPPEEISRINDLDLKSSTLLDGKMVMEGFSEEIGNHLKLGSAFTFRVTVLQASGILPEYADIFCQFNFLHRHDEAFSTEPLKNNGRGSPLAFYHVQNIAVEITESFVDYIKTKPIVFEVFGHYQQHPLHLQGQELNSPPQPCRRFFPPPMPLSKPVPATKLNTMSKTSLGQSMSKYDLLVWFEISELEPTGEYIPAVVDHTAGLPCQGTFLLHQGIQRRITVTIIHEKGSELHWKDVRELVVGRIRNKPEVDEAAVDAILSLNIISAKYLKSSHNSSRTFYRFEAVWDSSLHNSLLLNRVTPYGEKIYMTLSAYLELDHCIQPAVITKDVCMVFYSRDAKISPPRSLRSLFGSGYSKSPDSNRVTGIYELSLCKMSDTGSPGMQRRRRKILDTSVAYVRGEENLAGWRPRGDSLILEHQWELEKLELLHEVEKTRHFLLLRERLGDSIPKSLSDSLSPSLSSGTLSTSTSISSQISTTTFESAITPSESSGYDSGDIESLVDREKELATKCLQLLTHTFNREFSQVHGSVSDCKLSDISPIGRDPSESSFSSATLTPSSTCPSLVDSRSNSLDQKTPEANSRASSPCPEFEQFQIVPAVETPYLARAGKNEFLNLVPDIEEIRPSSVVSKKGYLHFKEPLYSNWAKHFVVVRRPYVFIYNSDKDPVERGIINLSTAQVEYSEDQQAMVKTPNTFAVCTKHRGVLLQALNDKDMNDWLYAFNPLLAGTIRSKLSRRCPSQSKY
# UniProt Q1ED39: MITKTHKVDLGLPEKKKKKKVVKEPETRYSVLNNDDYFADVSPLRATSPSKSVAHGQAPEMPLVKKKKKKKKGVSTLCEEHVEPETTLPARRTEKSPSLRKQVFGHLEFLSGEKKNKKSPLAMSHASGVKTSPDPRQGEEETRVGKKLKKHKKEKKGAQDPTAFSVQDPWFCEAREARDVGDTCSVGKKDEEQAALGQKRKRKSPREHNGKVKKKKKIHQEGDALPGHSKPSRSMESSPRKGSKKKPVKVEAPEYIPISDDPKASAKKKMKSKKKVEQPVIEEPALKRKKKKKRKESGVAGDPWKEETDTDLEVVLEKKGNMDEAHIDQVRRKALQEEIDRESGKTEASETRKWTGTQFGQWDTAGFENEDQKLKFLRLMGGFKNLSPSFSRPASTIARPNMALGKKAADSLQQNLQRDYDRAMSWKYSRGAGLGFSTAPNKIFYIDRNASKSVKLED
# This is one part of the list.
# Compound: CN1CCN(c2nc(C3=C(c4c[nH]c5ccccc45)C(=O)NC3=O)c3ccccc3n2)CC1 [sotrastaurin]
# Experiment: log2 fold change, soluble protein after heating vs DMSO (PISA); higher = thermal stabilisation; K562 cells, 10 uM, 30 min; active = over 0.2 and 3.5 SD of the protein, either way, in both replicates (recomputed)
# In short: (§1)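 K562 cells (2×10^6 cells/mL) were treated with 10 μM compound for 30 min, and aliquots were heated for 3 min over 48°C-58°C. Pooled aliquots were extracted in PBS with 0.5% NP-40 at 4°C, and the supernatant after 21,000xg for 90 min was measured by TMTpro 16plex LC-MS/MS with channel sums equalised. Reported thermal stability, relative to control samples and from duplicates, is a log2 fold change.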
row,Target,log2 fold change
1,KSR1 (UniProt Q8IVT5),inactive: -0.149
2,KIF3A (UniProt Q9Y496),inactive: -0.073
3,KPNB1 (UniProt Q14974),inactive: -0.21
4,JUNB (UniProt P17275),inactive: 0.006
5,KCNN4 (UniProt O15554),inactive: -0.021
6,KLHL18 (UniProt O94889),inactive: -0.042
7,KIFBP (UniProt Q96EK5),inactive: 0.029
8,KIF13B (UniProt Q9NQT8),inactive: 0.097
9,KCNK5 (UniProt O95279),inactive: -0.047
10,KPNA1 (UniProt P52294),inactive: -0.174
11,KIFC3 isoform 6 (UniProt Q9BVG8),inactive: 0.128
12,KAT7 (UniProt O95251),inactive: -0.081
13,KATNBL1 (UniProt Q9H079),inactive: -0.114
14,KIF14 (UniProt Q15058),inactive: 0.07
15,KBTBD4 isoform 2 (UniProt Q9NVX7),inactive: -0.023
16,KHDC4 (UniProt Q7Z7F0),inactive: 0.027
17,KNTC1 (UniProt P50748),inactive: -0.051
18,KIF3B (UniProt O15066),inactive: 0.005
19,KLC2 (UniProt Q9H0B6),inactive: -0.032
20,KRTCAP2 isoform 2 (UniProt Q8N6L1),inactive: -0.03
21,KIF26A (UniProt Q9ULI4),inactive: 0.005
22,KLF1 (UniProt Q13351),inactive: 0.182
23,KNG1 (UniProt P01042),inactive: 0.22
24,KEAP1 (UniProt Q14145),inactive: -0.119
25,KLF16 (UniProt Q9BXK1),inactive: -0.17
26,KIF1B isoform 4 (UniProt O60333),inactive: -0.014
27,KIF11 (UniProt P52732),inactive: -0.2
28,JMJD6 isoform 3 (UniProt Q6NYC1),inactive: -0.018
29,JPT2 isoform 2 (UniProt Q9H910),inactive: 0.114

# Compound: CN1CC[C@H](c2c(O)cc(O)c3c(=O)cc(-c4ccccc4Cl)oc23)[C@H](O)C1 [alvocidib]
# Experiment: as above
# In short: as §1
row,Target,log2 fold change
1,JUNB (UniProt P17275),inactive: 0.102
2,KCNN4 (UniProt O15554),inactive: 0.049
3,KNOP1 (UniProt Q1ED39),inactive: 0.404
4,KIF13B (UniProt Q9NQT8),inactive: -0.064
5,KIAA1755 (UniProt Q5JYT7),inactive: -0.036
6,KATNBL1 (UniProt Q9H079),inactive: -0.038
7,KIF14 (UniProt Q15058),inactive: 0.32
8,KBTBD4 isoform 2 (UniProt Q9NVX7),inactive: -0.054
9,KRTCAP2 isoform 2 (UniProt Q8N6L1),inactive: 0.019
10,KNG1 (UniProt P01042),inactive: 0.083

# Compound: CN1CCc2c(c3ccccc3n2Cc2ccc(C(=O)NO)cc2)C1 [Tubastatin A]
# Experiment: as above
# In short: as §1
row,Target,log2 fold change
1,KSR1 (UniProt Q8IVT5),inactive: 0.054
2,KIF3A (UniProt Q9Y496),inactive: -0.031
3,KPNB1 (UniProt Q14974),inactive: 0.031
4,JUNB (UniProt P17275),inactive: -0.003
5,KCNN4 (UniProt O15554),inactive: -0.117
6,KLHL18 (UniProt O94889),inactive: 0.144
7,KNOP1 (UniProt Q1ED39),inactive: 0.161
8,KIFBP (UniProt Q96EK5),inactive: -0.01
9,KIF13B (UniProt Q9NQT8),inactive: 0.016
10,KPNA1 (UniProt P52294),inactive: 0.021
11,KIFC3 isoform 6 (UniProt Q9BVG8),inactive: -0.004
12,KIAA1755 (UniProt Q5JYT7),inactive: -0.029
13,KATNBL1 (UniProt Q9H079),inactive: -0.018
14,KBTBD4 isoform 2 (UniProt Q9NVX7),inactive: -0.083
15,KHDC4 (UniProt Q7Z7F0),inactive: 0.052
16,KNTC1 (UniProt P50748),inactive: 0.018
17,KIF3B (UniProt O15066),inactive: 0.002
18,KLC2 (UniProt Q9H0B6),inactive: 0.086
19,KRTCAP2 isoform 2 (UniProt Q8N6L1),inactive: 0.032
20,KAT6B (UniProt Q8WYB5),inactive: -0.003
21,KNG1 (UniProt P01042),inactive: -0.16
22,KEAP1 (UniProt Q14145),inactive: -0.035
23,KLF16 (UniProt Q9BXK1),inactive: 0.111
24,KIF1B isoform 4 (UniProt O60333),inactive: 0.025
25,KIF11 (UniProt P52732),inactive: 0.05
26,JMJD6 isoform 3 (UniProt Q6NYC1),inactive: -0.122
27,JPT2 isoform 2 (UniProt Q9H910),inactive: 0.051

# Compound: CNC(=O)C1=CC=CC=C1NC2=NC(=NC=C2Cl)NC3=C(C=C(C=C3)N4CCOCC4)OC
# Experiment: as above
# In short: as §1
row,Target,log2 fold change
1,KSR1 (UniProt Q8IVT5),inactive: -0.061
2,KIF3A (UniProt Q9Y496),inactive: 0.085
3,KPNB1 (UniProt Q14974),inactive: 0.043
4,JUNB (UniProt P17275),inactive: -0.086
5,KCNN4 (UniProt O15554),inactive: 0.004
6,KLHL18 (UniProt O94889),inactive: -0.077
7,KNOP1 (UniProt Q1ED39),inactive: -0.194
8,KIFBP (UniProt Q96EK5),inactive: 0.02
9,KIF13B (UniProt Q9NQT8),inactive: 0.17
10,KCNK5 (UniProt O95279),inactive: -0.05
11,KPNA1 (UniProt P52294),inactive: 0.006
12,KIFC3 isoform 6 (UniProt Q9BVG8),inactive: -0.063
13,KIAA1755 (UniProt Q5JYT7),inactive: -0.009
14,KAT7 (UniProt O95251),inactive: -0.175
15,KIF14 (UniProt Q15058),inactive: -0.156
16,KBTBD4 isoform 2 (UniProt Q9NVX7),inactive: -0.062
17,KHDC4 (UniProt Q7Z7F0),inactive: 0.019
18,KNTC1 (UniProt P50748),inactive: 0.033
19,KIF3B (UniProt O15066),inactive: 0.069
20,KLC2 (UniProt Q9H0B6),inactive: -0.017
21,KRTCAP2 isoform 2 (UniProt Q8N6L1),inactive: -0.035
22,KAT6B (UniProt Q8WYB5),inactive: 0.007
23,KIF26A (UniProt Q9ULI4),inactive: 0.026
24,KNG1 (UniProt P01042),inactive: 0.052
25,KEAP1 (UniProt Q14145),inactive: 0.054
26,KLF16 (UniProt Q9BXK1),inactive: -0.088
27,KIF1B isoform 4 (UniProt O60333),inactive: 0.016
28,KIF11 (UniProt P52732),inactive: 0.275
29,JMJD6 isoform 3 (UniProt Q6NYC1),inactive: 0.081
30,JPT2 isoform 2 (UniProt Q9H910),inactive: -0.056
